Assay results published in publication PMC10670248.
No constants are given. Whether binding was seen depends on the method and setting. In cells and extracts the contact can be indirect. A yes stands for co-enrichment or nearness to the bait. Other partners may have been found. For some of these results: A no says only that the protein was not detected with the bait. For some of these results: Where a sequence is shown, tags or fusion partners need not be part of it.

By UniProt entry, the sequences of proteins in these tests, tags left out.
UniProt P60893: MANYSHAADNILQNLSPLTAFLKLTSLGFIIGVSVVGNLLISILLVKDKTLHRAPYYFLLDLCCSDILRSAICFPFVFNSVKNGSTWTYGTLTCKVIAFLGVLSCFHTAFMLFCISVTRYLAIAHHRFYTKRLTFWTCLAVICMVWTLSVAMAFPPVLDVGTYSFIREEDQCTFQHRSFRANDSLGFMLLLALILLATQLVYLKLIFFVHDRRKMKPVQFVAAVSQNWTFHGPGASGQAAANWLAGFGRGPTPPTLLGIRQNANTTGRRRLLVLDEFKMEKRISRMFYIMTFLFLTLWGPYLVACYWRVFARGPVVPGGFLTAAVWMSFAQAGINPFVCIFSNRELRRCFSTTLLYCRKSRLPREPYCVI
UniProt Q9NS66: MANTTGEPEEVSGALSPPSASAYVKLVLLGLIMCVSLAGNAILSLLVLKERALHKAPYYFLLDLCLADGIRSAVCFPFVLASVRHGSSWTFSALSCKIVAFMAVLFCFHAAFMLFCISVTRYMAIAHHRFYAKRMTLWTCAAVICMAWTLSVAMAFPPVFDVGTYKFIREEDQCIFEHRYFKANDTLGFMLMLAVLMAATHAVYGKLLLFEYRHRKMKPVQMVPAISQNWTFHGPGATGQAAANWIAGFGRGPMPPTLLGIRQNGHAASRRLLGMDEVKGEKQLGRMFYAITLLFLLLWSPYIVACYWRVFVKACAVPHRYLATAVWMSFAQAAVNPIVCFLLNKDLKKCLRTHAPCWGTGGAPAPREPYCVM
UniProt Q9NS67: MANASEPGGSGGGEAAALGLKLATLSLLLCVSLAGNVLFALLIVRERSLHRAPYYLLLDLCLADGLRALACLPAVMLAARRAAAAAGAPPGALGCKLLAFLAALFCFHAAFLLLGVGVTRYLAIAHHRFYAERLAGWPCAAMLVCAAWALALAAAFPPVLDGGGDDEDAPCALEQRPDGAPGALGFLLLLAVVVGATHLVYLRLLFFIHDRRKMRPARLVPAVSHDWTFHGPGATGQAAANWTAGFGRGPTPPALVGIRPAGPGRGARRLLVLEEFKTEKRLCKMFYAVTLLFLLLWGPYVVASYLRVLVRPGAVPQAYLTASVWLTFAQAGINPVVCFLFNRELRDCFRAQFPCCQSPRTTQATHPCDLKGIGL
UniProt P29992: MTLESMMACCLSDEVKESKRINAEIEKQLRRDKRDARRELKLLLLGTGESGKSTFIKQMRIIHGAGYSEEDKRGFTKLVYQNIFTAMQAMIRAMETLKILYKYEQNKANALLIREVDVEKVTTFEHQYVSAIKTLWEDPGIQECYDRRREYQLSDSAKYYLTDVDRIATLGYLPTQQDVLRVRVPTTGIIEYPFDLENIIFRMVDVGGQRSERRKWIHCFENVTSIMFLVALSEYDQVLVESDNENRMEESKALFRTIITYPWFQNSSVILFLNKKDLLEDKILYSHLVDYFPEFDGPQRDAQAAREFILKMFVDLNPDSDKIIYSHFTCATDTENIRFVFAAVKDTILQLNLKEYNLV
UniProt Q9Y2J2: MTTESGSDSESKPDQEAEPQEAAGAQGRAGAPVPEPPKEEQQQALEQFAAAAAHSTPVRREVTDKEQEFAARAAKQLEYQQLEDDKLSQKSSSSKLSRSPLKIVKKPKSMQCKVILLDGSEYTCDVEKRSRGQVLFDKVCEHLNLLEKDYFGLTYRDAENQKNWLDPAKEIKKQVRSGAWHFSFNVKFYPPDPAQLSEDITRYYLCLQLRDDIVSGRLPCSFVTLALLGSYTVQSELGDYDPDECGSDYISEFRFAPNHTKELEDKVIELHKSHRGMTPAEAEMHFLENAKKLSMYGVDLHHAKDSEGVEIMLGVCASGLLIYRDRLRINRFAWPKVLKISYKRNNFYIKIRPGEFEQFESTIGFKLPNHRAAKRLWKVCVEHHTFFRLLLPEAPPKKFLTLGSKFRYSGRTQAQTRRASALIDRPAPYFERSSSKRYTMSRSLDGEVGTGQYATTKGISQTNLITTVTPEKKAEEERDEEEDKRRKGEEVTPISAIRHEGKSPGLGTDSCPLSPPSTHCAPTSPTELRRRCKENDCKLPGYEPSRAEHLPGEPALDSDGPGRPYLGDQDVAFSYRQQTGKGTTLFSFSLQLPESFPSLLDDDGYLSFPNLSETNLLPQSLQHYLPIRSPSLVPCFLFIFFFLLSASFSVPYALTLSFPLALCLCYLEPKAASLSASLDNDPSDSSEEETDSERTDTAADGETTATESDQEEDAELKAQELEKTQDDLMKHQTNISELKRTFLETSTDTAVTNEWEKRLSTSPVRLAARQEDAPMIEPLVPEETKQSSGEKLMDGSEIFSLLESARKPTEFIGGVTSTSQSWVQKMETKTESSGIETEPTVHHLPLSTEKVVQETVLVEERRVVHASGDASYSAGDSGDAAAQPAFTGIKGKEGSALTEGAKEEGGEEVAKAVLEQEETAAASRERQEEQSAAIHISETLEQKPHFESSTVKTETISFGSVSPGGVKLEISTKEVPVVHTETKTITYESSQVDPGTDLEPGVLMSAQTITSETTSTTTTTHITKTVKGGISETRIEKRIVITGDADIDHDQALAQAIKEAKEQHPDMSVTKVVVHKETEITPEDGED
UniProt O43491: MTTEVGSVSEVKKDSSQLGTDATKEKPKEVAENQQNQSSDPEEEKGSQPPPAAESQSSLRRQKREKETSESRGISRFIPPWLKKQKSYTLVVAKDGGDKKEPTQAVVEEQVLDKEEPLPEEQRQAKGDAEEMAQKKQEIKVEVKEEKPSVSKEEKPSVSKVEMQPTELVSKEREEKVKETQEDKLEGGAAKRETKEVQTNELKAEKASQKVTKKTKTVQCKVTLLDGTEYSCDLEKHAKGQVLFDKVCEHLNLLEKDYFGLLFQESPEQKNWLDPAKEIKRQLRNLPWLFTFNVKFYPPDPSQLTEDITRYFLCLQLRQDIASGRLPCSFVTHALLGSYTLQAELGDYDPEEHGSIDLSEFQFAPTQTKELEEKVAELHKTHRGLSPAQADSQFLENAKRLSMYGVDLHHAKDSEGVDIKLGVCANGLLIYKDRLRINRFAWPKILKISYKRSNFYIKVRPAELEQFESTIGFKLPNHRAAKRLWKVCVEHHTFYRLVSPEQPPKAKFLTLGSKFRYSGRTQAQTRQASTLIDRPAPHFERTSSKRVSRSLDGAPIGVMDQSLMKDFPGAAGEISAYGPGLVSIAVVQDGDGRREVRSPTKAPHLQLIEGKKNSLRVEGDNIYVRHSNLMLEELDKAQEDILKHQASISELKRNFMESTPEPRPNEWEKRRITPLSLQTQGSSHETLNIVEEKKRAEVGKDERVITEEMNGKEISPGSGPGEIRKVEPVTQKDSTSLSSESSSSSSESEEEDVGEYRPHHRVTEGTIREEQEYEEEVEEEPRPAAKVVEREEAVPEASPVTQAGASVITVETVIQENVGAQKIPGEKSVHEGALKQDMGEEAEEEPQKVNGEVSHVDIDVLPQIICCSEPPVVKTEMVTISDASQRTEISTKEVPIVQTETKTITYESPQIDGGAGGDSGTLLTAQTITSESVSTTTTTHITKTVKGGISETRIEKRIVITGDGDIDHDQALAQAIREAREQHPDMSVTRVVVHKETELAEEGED
UniProt P63092: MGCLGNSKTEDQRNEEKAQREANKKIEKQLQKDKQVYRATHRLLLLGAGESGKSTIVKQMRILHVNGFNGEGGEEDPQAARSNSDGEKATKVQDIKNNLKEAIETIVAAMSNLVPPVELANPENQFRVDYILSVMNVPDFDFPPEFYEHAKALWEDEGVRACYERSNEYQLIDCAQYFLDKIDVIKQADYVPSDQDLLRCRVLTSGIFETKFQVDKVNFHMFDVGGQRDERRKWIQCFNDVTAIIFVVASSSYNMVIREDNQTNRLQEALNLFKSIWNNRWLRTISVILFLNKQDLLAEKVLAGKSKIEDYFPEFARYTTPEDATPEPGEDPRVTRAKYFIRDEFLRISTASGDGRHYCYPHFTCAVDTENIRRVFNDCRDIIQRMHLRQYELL
UniProt P04899: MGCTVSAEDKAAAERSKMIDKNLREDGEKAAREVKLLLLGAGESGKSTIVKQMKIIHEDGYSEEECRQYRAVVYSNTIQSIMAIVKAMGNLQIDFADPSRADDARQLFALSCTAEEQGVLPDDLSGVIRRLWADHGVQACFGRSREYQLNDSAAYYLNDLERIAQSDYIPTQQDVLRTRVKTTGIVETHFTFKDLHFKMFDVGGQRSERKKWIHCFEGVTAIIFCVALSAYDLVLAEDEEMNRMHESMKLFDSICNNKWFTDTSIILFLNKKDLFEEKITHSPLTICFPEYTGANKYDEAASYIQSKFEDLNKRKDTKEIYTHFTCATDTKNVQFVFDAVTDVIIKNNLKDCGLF

Key:
Assay in all cases: proximity labelling; BioID2 fused to the C-terminus of the receptor, stable HEK293 clones, 50 µM biotin (24 h in the methods, 16 h in the results and legend); lysis in 8 M urea, streptavidin Sepharose pull-down, LC-MS/MS; enrichment against BioID alone (fold change ≥3, SAINT score ≥0.8)
[1] = target: SREB2-BioID (human SREB2/GPR85 fused to 3×(GGGGS)-linker, BioID2 and HA tag) (human) (UniProt P60893)
[2] = target: T1, CMKLR1-BioID (human CMKLR1, chemerin receptor, fused to 3×(GGGGS)-linker, BioID2 and HA tag) (human) (UniProt Q99788)
T1 sequence: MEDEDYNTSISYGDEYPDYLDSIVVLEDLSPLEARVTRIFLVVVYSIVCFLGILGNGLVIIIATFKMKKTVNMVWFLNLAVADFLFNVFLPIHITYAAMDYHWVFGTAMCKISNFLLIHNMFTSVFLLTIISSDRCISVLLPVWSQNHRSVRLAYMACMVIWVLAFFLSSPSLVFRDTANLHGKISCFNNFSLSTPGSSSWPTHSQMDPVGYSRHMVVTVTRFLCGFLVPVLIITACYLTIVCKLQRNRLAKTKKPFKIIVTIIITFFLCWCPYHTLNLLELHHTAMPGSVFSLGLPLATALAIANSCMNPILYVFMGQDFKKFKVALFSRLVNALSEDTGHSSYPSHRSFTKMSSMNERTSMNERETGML

[3] = target: SREB3-BioID (human SREB3/GPR173 fused to 3×(GGGGS)-linker, BioID2 and HA tag) (human) (UniProt Q9NS66)
[4] = target: SREB1-BioID (human SREB1/GPR27 fused to 3×(GGGGS)-linker, BioID2 and HA tag) (human) (UniProt Q9NS67)

Substance | binding [1] | binding [2] | binding [3] | binding [4]
Gα11 (endogenous, HEK293 cells) (from UniProt P29992 1-359) | no binding | binds | no binding | no binding
solute carrier family 3 member 2 protein (SLC3A2) (endogenous, biotinylated in HEK293 cells) (from UniProt P08195 1-529) | – | – | binds | binds
EPB41L3 (endogenous, biotinylated in HEK293 cells) (from UniProt Q9Y2J2 1-1087) | binds | binds | binds | –

The remaining lines, values ahead:

binding [1] | binding [2] | binding [3] | binding [4] | Substance
binds | – | – | – | lipopolysaccharide-responsive and beige-like anchor protein (LRBA) (endogenous, biotinylated in HEK293 cells) (from UniProt P50851 1-2863)
binds | binds | binds | binds | EPB41L2 (endogenous, biotinylated in HEK293 cells) (from UniProt O43491 1-1005)
no binding | binds | no binding | no binding | Gαs (endogenous, HEK293 cells) (from UniProt P63092 1-394)
no binding | binds | no binding | no binding | Gαi2 (endogenous, HEK293 cells) (from UniProt P04899 1-355)
